Test results published in the supplement of paper PMC3334620.
Whole data set: some 33,000 sequences, median “E-score (-0.5 to 0.5)” near -0.0014, cut for the highest 2% near 0.25. The list shows a part of the results.

Target: T1, Cad1 (UniProt P24813)
T1 sequence: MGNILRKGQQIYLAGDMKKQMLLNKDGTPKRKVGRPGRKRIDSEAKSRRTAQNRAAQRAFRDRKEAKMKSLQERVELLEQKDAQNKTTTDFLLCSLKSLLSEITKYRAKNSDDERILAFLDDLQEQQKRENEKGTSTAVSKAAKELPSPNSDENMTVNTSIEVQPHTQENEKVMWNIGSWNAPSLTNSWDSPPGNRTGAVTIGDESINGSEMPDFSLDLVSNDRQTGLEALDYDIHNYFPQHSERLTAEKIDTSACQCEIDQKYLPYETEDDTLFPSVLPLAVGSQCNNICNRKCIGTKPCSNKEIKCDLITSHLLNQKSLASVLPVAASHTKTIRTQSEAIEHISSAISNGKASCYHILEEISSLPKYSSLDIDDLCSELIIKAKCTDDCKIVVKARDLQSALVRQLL
Assay: PBM E-score (8-mer binding enrichment) (E-score (-0.5 to 0.5)); higher = stronger / more preferred TF binding
Conditions: protein concentration: 100 nM; construct: GST-full length
Method in brief: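 Yeast transcription factors, full-length or as DNA-binding domains, were expressed with a GST tag using PURExpress in vitro transcription/translation. At about 100-200 nM they were applied to universal all-10-mer Agilent arrays, double-stranded by primer extension on fresh or once-stripped slides. Fluorescent anti-GST detected bound protein, and masliner normalised the scans. E-scores for ungapped eight-base words, pooled with reverse complements, came from the Universal PBM Analysis Suite.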

| Sequence | PBM E-score |
| --- | --- |
| AGCATTAA | 0.103 |
| CTGTGGTC | -0.0451 |
| CTATCAGA | -0.0588 |
| ACGCGCGC | 0.216 |
| AAACCCCA | -0.0881 |
| TCGAACCA | 0.00614 |
| CGTCGTCA | 0.0789 |
| CATCTGAA | -0.0273 |
| GAATCATC | -0.0502 |
| AGTCAGGC | 0.294 |
| GCAAGAGA | -0.0302 |
| GCTCGTAC | -0.0251 |
| GGCGGTTA | -0.0366 |
| ACCGATTC | -0.167 |
| CCGGAACG | -0.00669 |
| AAGGATCT | -0.233 |
| AGCAGGAA | 0.0471 |
| ATAGACTG | 0.125 |
| CGAAACTC | -0.0109 |
| ATCCGAAT | 0.24 |
| CTGTGATA | 0.0563 |
| CCAAGGTA | -0.0324 |
| GGCAGGTA | -0.106 |
| ATATTAGA | 0.197 |
| GTGTTAAA | 0.123 |

Single entries from the list.
For PBM E-score, CGAAACTC is entered as -0.0109
For PBM E-score, ATCCGAAT is entered as 0.24
For PBM E-score, GGCGGTTA is entered as -0.0366
For PBM E-score, ATATTAGA is entered as 0.197
For PBM E-score, GCTCGTAC is entered as -0.0251

Later entries:

| Sequence | PBM E-score |
| --- | --- |
| CCATGCCG | -0.0044 |
| AAAGACTC | -0.138 |
| AGAAACGC | -0.157 |
| ATGTCCGG | 0.148 |
| ACCGGCTA | 0.0442 |
| GGAAGCGA | -0.0787 |
| GCTTGACC | -0.178 |
| AAGGATAA | -0.0596 |
| AAAGGAGA | -0.256 |
| GTCTTCAC | -0.151 |
| GGGGCCTA | -0.371 |
| CTATCAAG | 0.0773 |
| GTAGTAAA | 0.0742 |
| ACAACTAC | -0.0111 |
| ATCCGCAG | 0.183 |
| CGCTATAG | -0.102 |
| GCACGTAA | -0.0724 |
| GTCTTCCA | -0.149 |
| ACATAATG | 0.172 |
| ACGATAAT | 0.159 |
| ATAATTAC | 0.295 |
| CTGCGAAC | -0.0614 |
| AAGGACAG | 0.0368 |
| GTTAGGTA | 0.0174 |
| ATATCGTA | 0.0481 |

| Sequence | PBM E-score |
| --- | --- |
| GCGACGGA | 0.0268 |
| ACAGGAGG | -0.311 |
| ATAGAGCC | -0.106 |
| AGATATAC | -0.00683 |
| AATGGAGG | -0.211 |
| GTCTGAGA | -0.0574 |
| GACTTCCA | -0.0194 |
| CATCTCAA | -0.112 |
| CTCGAAGA | -0.132 |
| ATCTAGAC | 0.0045 |
| TGACCGCA | 0.0752 |
| CAGAATAC | 0.0636 |
| AAATCTCA | 0.158 |
| AATGTAAC | 0.0359 |
| CCCCGCAC | -0.0934 |
| AGGGTCAC | -0.275 |
| CCAATCCG | 0.0527 |
| GAGGGTTA | -0.116 |
| TAAATGTA | 0.176 |
| AGCAAATC | 0.11 |
| GGAGAGGA | -0.292 |
| AAAAAGTT | 0.00711 |
| GGACATCA | 0.0708 |
| AGATGTTA | -0.167 |
| TGAATTCA | 0.231 |

| Sequence | PBM E-score |
| --- | --- |
| CCACGTCA | 0.0919 |
| GATCGTGA | -0.139 |
| CAGATACG | -0.0246 |
| AAACGCCT | -0.15 |
| AGATATGA | 0.222 |
| CGCTCAGC | -0.0359 |
| GAAATGTA | 0.038 |
| CGTCTGCA | 0.0107 |
| CGAGTGAA | -0.00851 |
| GGCGAGAA | 0.0201 |
| CCTTGACC | -0.11 |
| AGTCCGTG | -0.121 |
| CTGAACTA | -0.0623 |
| CGAGCGAA | 0.0991 |
| CGTCGTAG | -0.0885 |
| TTGCCCAA | -0.0406 |
| GTCGAGAC | 0.0826 |
| AATTGCAG | 0.0363 |
| ACGGCACG | -0.0131 |
| TACTCACA | 0.0875 |
| CGTATGTA | -0.105 |
| AACTCATG | 0.158 |
| GAGGGTCC | -0.337 |
| GGCGGTCA | -0.318 |
| TAGTTAAA | 0.108 |

| Sequence | PBM E-score |
| --- | --- |
| GCGCCGAA | 0.11 |
| CATGATCC | -0.0795 |
| ACCCAGCC | -0.142 |
| CAGAGCCC | -0.103 |
| CCGTGGGA | -0.217 |
| CCTACCTA | -0.0464 |
| AAAGCCGA | -0.0889 |
| ACGTCATC | 0.0219 |
| GCCGACCC | -0.238 |
| ACTGTTGC | 0.0414 |
| AGCTAAGA | 0.0205 |
| GAGTCAAA | -0.0957 |
| CCATGGGC | -0.104 |
| CATTCTCG | -0.0865 |
| GGTGTGAC | -0.263 |
| CAACACTC | 0.0612 |
| ATTGATAC | 0.118 |
| CACATAAA | 0.162 |
| CGCCCATA | -0.0511 |
| TAGTCAGA | 0.148 |
| GCCGTGTA | -0.0267 |
| TAGCAAAA | 0.143 |
| GTGACCAC | -0.238 |
| CTACCATA | -0.0478 |
| CCTAGACC | -0.179 |

| Sequence | PBM E-score |
| --- | --- |
| AACCAGGA | -0.0101 |
| CTATAGAG | -0.134 |
| CCTTGGTC | -0.145 |
| CGCCACGC | -0.0119 |
| AAAAGCTC | -0.0203 |
| CGTGTAAA | -0.0103 |
| CCCGGTAA | -0.056 |
| ACTACTAA | 0.158 |
| AATCTTTA | -0.0229 |
| TCCCTGAA | 0.0754 |
| CTAGTCTA | -0.173 |
| AAATTCGT | 0.169 |
| AACTCTAT | -0.0631 |
| ACCAGTTG | -0.0247 |
| AATACGGT | 0.0436 |
| GAACTCTC | -0.0666 |
| AGAAGGCG | -0.0454 |
| CTGGATCC | -0.00135 |
| GGGTGGGA | -0.0834 |
| GATCCTTA | -0.0932 |
| ATTACTTG | 0.125 |
| ATGCGCTG | 0.00503 |
| CACCAAAC | 0.181 |
| ACACGCAT | -0.0402 |
| CCGCCGTA | -0.0406 |

| Sequence | PBM E-score |
| --- | --- |
| CTGTGACC | -0.108 |
| GCGCCTAC | 0.0741 |
| CCCGTGGA | -0.163 |
| GAGGAACA | 0.167 |
| CCCCCCAA | -0.442 |
| ATCGGAGA | -0.0793 |
| GAACGGCC | -0.016 |
| AACTAGCT | 0.0207 |
| ATGCGTTC | 0.113 |
| AATCTGTC | 0.0801 |
| GTGAACAA | -0.011 |
| ACGATACA | -0.0646 |
| ACTACCCC | -0.231 |
| AAACAGGG | 0.0116 |
| AAGTCCTA | -0.103 |
| ACCCCGAA | 0.0309 |
| AAAGACGC | -0.00428 |
| ACGCTTGC | 0.0347 |
| AGTGCTAG | -0.11 |
| TATCTCCA | 0.0394 |
| AGAGGACG | 0.0374 |
| CTACTTGC | 0.076 |

Reprinted from the entries so far for reference:

| Sequence | PBM E-score |
| --- | --- |
| AACTAGCT | 0.0207 |
| ATGCGTTC | 0.113 |
| AATCTGTC | 0.0801 |
| GTGAACAA | -0.011 |
